Measurements reported in the supplement of paper PMC10849652.
Some of the results follow.

Chains of the proteins cited; added tags and fusions are not shown. Lines headed by an entry give the natural chain unless they say otherwise; changes in a name come on top.
UniProt Q9NYZ3: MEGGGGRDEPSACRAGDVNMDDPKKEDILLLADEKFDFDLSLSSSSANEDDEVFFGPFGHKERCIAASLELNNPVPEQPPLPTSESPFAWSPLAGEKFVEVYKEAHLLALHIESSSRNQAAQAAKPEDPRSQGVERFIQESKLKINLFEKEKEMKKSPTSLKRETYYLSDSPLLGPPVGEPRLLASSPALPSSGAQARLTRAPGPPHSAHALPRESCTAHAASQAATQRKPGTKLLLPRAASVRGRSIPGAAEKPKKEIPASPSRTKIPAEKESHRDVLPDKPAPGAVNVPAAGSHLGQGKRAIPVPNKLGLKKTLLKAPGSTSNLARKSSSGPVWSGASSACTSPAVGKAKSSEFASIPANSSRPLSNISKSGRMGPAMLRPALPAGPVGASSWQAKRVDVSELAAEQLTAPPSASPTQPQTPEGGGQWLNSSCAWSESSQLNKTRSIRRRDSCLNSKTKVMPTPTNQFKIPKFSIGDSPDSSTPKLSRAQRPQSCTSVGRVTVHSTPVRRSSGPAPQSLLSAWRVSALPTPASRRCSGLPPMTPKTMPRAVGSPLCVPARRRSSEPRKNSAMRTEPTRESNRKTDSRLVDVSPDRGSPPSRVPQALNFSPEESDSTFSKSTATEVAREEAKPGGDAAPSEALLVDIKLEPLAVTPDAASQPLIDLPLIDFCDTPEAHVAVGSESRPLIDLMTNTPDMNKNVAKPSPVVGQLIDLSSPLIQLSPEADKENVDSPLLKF
UniProt O94992, whole entry, looked up: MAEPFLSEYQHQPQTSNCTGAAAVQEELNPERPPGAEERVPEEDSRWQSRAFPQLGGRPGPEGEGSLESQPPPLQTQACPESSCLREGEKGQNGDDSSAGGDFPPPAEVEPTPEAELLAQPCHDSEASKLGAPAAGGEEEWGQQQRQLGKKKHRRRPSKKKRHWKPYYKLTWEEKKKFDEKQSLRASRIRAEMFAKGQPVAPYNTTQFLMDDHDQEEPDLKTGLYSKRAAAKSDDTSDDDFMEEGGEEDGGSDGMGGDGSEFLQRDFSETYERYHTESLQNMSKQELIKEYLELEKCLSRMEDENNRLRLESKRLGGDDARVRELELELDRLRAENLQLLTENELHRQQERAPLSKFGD
UniProt O95479: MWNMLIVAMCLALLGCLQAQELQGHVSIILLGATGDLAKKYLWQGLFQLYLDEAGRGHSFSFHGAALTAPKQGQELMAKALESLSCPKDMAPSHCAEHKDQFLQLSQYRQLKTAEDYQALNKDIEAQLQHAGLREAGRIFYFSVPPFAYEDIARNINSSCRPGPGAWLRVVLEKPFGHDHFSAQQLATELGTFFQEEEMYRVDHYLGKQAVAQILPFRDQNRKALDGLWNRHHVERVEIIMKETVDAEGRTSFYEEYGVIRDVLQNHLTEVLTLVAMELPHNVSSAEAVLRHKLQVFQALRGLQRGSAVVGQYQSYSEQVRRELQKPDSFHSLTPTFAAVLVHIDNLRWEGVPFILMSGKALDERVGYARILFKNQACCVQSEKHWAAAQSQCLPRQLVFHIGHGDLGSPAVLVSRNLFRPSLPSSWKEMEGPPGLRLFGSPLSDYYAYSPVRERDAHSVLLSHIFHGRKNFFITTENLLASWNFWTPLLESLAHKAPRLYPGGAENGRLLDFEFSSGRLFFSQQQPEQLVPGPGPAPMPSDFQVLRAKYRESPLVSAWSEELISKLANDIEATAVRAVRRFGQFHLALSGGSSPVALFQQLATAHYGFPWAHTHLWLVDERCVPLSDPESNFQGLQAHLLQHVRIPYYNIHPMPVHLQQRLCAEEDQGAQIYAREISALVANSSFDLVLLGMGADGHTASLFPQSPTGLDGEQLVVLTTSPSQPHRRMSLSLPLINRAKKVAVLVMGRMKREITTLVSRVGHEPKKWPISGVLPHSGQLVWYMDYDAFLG
UniProt P46976: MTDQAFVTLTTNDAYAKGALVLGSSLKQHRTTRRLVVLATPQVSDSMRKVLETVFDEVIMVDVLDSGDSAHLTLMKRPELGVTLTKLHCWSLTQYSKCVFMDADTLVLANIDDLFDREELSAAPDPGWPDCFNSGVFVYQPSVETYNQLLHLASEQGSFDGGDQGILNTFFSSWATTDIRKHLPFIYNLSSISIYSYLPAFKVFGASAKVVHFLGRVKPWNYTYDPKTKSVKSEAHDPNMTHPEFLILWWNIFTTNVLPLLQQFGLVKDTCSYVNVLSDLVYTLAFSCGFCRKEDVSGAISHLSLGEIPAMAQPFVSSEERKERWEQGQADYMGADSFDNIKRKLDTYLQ
UniProt Q96CS2: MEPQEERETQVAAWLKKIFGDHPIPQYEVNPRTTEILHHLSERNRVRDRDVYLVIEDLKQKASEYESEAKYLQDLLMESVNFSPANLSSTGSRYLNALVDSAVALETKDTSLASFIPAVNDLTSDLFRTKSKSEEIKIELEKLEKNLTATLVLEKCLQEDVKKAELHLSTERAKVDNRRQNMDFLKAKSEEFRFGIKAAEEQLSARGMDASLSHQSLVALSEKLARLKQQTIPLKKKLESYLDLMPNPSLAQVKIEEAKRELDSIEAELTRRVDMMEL
UniProt P29083: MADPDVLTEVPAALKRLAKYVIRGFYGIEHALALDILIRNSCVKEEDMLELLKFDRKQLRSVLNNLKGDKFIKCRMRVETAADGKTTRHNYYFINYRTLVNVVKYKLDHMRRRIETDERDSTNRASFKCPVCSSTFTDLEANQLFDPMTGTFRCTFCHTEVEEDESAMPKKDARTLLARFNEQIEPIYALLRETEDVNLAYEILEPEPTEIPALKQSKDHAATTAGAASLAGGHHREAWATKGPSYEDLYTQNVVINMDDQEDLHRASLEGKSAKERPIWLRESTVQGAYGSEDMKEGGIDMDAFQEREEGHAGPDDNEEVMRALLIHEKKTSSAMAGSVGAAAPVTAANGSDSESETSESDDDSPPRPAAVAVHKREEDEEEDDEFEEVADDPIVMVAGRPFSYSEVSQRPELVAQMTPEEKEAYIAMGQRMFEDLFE
UniProt Q9BSH5: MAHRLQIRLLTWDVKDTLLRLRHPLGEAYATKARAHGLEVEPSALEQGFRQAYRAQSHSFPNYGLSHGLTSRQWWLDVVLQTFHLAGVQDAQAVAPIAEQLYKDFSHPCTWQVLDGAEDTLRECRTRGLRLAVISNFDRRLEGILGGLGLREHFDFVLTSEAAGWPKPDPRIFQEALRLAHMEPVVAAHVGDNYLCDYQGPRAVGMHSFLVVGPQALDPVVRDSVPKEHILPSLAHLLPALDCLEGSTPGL
UniProt Q969S8: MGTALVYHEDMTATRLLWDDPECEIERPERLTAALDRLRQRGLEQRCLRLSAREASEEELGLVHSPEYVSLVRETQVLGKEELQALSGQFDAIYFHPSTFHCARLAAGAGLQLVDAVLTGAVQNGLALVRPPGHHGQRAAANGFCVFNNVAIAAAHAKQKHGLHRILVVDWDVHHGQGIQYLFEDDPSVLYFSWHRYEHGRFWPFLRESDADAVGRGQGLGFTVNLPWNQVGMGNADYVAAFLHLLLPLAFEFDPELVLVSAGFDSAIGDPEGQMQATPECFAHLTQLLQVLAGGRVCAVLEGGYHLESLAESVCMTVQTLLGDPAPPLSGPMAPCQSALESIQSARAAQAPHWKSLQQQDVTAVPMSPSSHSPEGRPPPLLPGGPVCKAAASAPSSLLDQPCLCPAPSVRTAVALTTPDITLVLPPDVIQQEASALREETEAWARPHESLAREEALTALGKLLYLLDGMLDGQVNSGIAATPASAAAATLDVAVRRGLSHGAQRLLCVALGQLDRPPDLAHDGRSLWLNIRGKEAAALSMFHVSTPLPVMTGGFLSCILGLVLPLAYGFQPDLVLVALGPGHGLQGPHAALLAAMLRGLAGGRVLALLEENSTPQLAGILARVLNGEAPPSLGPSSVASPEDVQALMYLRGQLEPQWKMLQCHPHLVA
UniProt P69892: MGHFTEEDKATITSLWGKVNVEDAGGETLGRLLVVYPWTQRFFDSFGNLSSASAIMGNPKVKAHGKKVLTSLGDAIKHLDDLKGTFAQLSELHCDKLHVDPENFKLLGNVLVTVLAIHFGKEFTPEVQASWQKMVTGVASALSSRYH
UniProt Q9Y5Q8: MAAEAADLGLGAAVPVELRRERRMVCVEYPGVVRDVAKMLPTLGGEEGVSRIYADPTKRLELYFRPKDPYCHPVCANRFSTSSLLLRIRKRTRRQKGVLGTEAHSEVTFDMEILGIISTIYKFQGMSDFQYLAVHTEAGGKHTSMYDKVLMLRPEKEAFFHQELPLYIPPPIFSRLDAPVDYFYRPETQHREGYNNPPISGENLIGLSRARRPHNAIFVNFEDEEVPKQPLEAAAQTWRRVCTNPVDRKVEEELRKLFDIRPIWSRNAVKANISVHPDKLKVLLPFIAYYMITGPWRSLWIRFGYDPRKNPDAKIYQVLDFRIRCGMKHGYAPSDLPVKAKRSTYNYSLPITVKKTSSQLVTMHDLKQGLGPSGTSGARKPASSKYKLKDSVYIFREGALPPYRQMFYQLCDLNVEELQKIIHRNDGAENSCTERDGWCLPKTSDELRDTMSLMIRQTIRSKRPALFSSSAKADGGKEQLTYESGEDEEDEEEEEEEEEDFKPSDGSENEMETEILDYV
UniProt P02100: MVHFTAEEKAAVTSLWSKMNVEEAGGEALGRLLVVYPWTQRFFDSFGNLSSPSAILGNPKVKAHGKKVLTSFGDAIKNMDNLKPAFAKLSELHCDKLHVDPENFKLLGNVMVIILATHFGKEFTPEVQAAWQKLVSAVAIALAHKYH
UniProt Q9P0R6: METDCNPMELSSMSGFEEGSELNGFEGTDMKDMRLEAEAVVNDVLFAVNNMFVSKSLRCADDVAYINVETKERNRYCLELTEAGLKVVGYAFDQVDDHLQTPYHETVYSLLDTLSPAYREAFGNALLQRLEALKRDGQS
UniProt P78347: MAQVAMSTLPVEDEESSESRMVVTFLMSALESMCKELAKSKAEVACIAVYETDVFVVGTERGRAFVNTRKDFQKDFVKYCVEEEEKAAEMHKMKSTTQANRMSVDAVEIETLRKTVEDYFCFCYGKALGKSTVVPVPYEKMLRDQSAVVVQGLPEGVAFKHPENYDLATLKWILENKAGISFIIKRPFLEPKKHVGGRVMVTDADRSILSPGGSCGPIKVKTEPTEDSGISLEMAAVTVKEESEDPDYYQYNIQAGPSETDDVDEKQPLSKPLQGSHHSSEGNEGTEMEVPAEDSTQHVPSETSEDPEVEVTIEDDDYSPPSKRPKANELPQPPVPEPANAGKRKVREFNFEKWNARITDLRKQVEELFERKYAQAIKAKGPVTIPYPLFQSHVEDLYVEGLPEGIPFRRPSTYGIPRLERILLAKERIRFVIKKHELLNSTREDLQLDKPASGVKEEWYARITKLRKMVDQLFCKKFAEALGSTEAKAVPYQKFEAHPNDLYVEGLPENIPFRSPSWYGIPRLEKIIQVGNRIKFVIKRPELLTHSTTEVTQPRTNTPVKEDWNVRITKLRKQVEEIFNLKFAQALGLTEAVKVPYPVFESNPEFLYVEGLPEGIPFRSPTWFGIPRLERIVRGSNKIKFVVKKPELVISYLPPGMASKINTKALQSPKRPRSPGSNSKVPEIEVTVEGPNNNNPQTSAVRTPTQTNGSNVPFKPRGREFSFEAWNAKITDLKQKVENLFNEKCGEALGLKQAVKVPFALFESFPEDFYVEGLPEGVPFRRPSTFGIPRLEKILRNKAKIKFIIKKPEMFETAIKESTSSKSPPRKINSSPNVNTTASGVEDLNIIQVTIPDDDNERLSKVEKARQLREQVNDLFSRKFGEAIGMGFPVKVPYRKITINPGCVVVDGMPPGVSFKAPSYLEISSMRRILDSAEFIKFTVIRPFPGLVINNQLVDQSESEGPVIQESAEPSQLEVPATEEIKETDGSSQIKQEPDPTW
UniProt Q9UJ83: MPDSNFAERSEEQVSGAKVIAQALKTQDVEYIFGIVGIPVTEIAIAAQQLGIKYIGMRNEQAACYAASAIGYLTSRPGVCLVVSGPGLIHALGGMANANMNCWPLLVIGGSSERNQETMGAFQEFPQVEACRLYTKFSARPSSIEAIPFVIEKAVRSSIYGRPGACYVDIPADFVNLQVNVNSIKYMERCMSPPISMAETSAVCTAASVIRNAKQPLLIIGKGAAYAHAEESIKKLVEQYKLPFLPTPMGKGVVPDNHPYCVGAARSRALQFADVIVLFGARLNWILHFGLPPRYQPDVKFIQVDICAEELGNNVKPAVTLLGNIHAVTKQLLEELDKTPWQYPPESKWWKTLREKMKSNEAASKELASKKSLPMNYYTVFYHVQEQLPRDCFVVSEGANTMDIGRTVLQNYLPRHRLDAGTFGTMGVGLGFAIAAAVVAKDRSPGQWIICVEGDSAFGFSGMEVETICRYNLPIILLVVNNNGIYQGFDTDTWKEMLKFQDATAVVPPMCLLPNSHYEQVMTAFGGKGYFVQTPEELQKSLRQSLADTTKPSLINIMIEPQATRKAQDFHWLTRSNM
UniProt P02008: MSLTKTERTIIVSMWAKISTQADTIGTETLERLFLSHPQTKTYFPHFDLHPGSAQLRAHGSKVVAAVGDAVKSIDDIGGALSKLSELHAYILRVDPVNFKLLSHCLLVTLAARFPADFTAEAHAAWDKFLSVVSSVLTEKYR

Tests used:
Assay in all cases: log2 fold change, soluble protein after heating vs DMSO (PISA); higher = thermal stabilisation; K562 cells, 10 uM, 30 min; active = over 0.2 and 3.5 SD of the protein, either way, in both replicates (recomputed)
erlotinib = compound: C#Cc1cccc(Nc2ncnc3cc(OCCOC)c(OCCOC)cc23)c1 [erlotinib]
Procedure, shortened: (§1)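 For each measurement, 10 μM compound was applied for 30 min to K562 cells at 2×10^6 cells/mL. Aliquots were heated for 3 min across 48°C-58°C, pooled, and extracted in PBS with 0.5% NP-40 at 4°C; the supernatant after 21,000xg for 90 min was soluble protein. This was quantified by TMTpro 16plex LC-MS/MS with channel sums equalised, and thermal stability was reported relative to control samples from duplicates, on a log2 fold-change scale.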

[1] = compound: C/C(=N\NC(=O)C1=CC(=CC=C1)S(=O)(=O)N2CCOCC2)/C3=C(C=CC(=C3)Cl)O
Procedure, shortened: as §1

[2] = compound: C1=CC(=C(C=C1Cl)C2=NC3=NC=CN=C3C(=N2)NC4=CC=NC=C4)F
Procedure, shortened: as §1

[3] = compound: C1=CC(=CC=C1C2=NC3=C(N2)C=C(C=C3)C(=O)N)OC4=CC=C(C=C4)Cl
Procedure, shortened: as §1

[4] = compound: C1=CC2=C(C=CC(=C2)/C=C\3/C(=O)NC(=NCC4=CC=CS4)S3)N=C1
Procedure, shortened: as §1

[5] = compound: C1=CC2=NC=CN=C2C=C1/C=C/3\C(=O)NC(=O)S3
Procedure, shortened: as §1

[6] = compound: C1=CC=C(C=C1)C2=NC(=C(N2)C3=CC=NC=C3)C4=CC(=C(C=C4)Cl)O
Procedure, shortened: as §1

[7] = compound: C1=CC=C2C(=C1)C3=NNC4=CC=CC(=C43)C2=O
Procedure, shortened: as §1

[8] = compound: C1CCN(C1)C(=O)NC2=CC=CC(=C2)NC3=NC=C(C(=N3)NCCC4=CN=CN4)Br
Procedure, shortened: as §1

[9] = compound: C1CN(CCC1(CC2=CC=C(C=C2)Cl)N)C3=NC=NC4=C3C=CN4
Procedure, shortened: as §1

Measured: log2 fold change

GTPBP1 (UniProt O00178)
inactive: erlotinib 0.002 | [1] 0.025 | [2] -0.04 | [3] -0.032 | [4] -0.018 | [5] -0.019 | [6] 0.042 | [7] 0.017 | [8] 0 | [9] 0.016

GTSE1 (UniProt Q9NYZ3)
inactive: erlotinib -0.018 | [1] -0.116 | [2] 0.004 | [3] 0.112 | [4] 0.1 | [5] 0.109 | [6] -0.04 | [7] -0.008 | [8] 0.068 | [9] -0.023

HEXIM1 (UniProt O94992)
inactive: erlotinib 0.051 | [1] -0.034 | [2] -0.071 | [3] 0.007 | [4] 0.04 | [5] 0.011 | [6] -0.109 | [7] 0.005 | [8] -0.005 | [9] -0.048

HDAC5 isoform 3 (UniProt Q9UQL6)
inactive: erlotinib -0.075 | [1] 0.141 | [2] -0.129 | [3] -0.041 | [4] -0.059 | [5] 0.028 | [7] 0.001 | [8] -0.063 | [9] 0.009

H6PD (UniProt O95479)
inactive: erlotinib 0.018 | [1] -0.078 | [2] -0.096 | [3] 0.032 | [4] 0.068 | [6] -0.025 | [7] 0.032 | [8] -0.034 | [9] 0.01

GYG1 (UniProt P46976)
inactive: erlotinib -0.064 | [1] 0.016 | [2] -0.23 | [3] 0.005 | [4] 0.089 | [5] -0.039 | [6] -0.109 | [7] 0.083 | [8] -0.075 | [9] -0.027

HAUS1 (UniProt Q96CS2)
inactive: erlotinib -0.01 | [1] 0.067 | [2] -0.047 | [3] -0.01 | [4] -0.107 | [5] 0.068 | [6] 0.068 | [7] -0.075 | [8] -0.089 | [9] -0.084

GTF2E1 (UniProt P29083)
inactive: erlotinib 0.067 | [1] 0.145 | [2] 0.046 | [3] -0.002 | [4] 0.094 | [5] 0.007 | [6] 0.025 | [7] 0.039 | [8] -0.076 | [9] 0.017

HAUS3 (UniProt Q68CZ6)
inactive: erlotinib -0.014 | [1] 0.117 | [2] -0.539 | [3] 0.122 | [4] -0.108 | [6] -0.017 | [7] 0.042 | [8] 0.025 | [9] -0.185

HBS1L isoform 2 (UniProt Q9Y450)
inactive: erlotinib 0.031 | [1] -0.048 | [2] -0.019 | [3] -0.003 | [4] -0.084 | [5] 0.036 | [6] 0.034 | [7] 0.005 | [8] 0.032 | [9] -0.075

GTPBP3 isoform 2 (UniProt Q969Y2)
inactive: erlotinib 0.02 | [1] -0.038 | [2] 0.038 | [3] 0.011 | [4] 0.037 | [5] 0.006 | [6] -0.001 | [7] -0.022 | [8] -0.038 | [9] 0.031

HDHD3 (UniProt Q9BSH5)
inactive: erlotinib 0.02 | [1] 0.089 | [2] 0.043 | [3] 0.005 | [4] 0.083 | [5] 0.043 | [6] -0.061 | [7] 0.017 | [8] -0.013 | [9] 0.044

HDAC10 (UniProt Q969S8)
inactive: erlotinib 0.065 | [1] -0.067 | [3] 0.038 | [4] -0.277 | [5] 0.066 | [6] 0.045 | [7] -0.072 | [9] 0.333
active: [8] -0.729

GSTM5 (UniProt P46439)
inactive: erlotinib -0.062 | [1] 0.076 | [2] 0.084 | [3] 0.024 | [4] 0.009 | [5] 0.146 | [7] 0.009 | [8] 0.002 | [9] -0.092

GSTCD (UniProt Q8NEC7)
inactive: erlotinib 0.039 | [1] 0.094 | [2] 0.013 | [3] -0.033 | [4] 0.086 | [5] 0.017 | [6] -0.041 | [7] -0.028 | [8] -0.056 | [9] -0.018

H1FX (UniProt Q92522)
inactive: erlotinib -0.285 | [1] -0.189 | [2] -0.379 | [3] 0.016 | [4] -0.12 | [5] -0.012 | [6] 0.033 | [7] 0 | [8] 0.076 | [9] -0.101

Random excerpt: 2 entries already listed
HDHD3 (UniProt Q9BSH5)
inactive: erlotinib 0.02 | [1] 0.089 | [2] 0.043 | [3] 0.005 | [4] 0.083 | [5] 0.043 | [6] -0.061 | [7] 0.017 | [8] -0.013 | [9] 0.044

HDAC10 (UniProt Q969S8)
inactive: erlotinib 0.065 | [1] -0.067 | [3] 0.038 | [4] -0.277 | [5] 0.066 | [6] 0.045 | [7] -0.072 | [9] 0.333
active: [8] -0.729

The listing continues:

GXYLT1 (UniProt Q4G148)
inactive: erlotinib -0.005 | [1] -0.023 | [2] 0.15 | [3] 0.035 | [4] -0.037 | [5] -0.185 | [6] 0.115 | [7] 0.008 | [8] -0.043 | [9] 0.023

HBG2 (UniProt P69892)
inactive: erlotinib -0.042 | [1] 0.088 | [2] 0.198 | [3] 0.045 | [4] 0.014 | [5] -0.062 | [6] 0.13 | [7] 0.053 | [8] -0.055 | [9] 0.053

GTF3C5 isoform 3 (UniProt Q9Y5Q8)
inactive: erlotinib 0.085 | [1] 0.293 | [2] -0.078 | [3] -0.049 | [5] -0.056 | [6] -0.089 | [7] 0.079 | [8] -0.067 | [9] -0.038
active: [4] -0.413

GTPBP6 (UniProt O43824)
inactive: erlotinib -0.091 | [1] -0.017 | [2] -0.137 | [3] 0.01 | [4] 0.041 | [5] 0.066 | [6] -0.036 | [7] -0.05 | [8] 0.06 | [9] 0.027

HERPUD2 (UniProt Q9BSE4)
inactive: erlotinib 0.01 | [1] -0.067 | [3] 0.049 | [4] 0.069 | [5] -0.27 | [6] 0.034 | [7] 0.121

HBE1 (UniProt P02100)
inactive: erlotinib -0.088 | [1] 0.028 | [2] 0.205 | [3] 0.053 | [4] 0.136 | [5] -0.005 | [6] 0.071 | [7] 0.03 | [8] 0 | [9] 0.018

GSKIP (UniProt Q9P0R6)
inactive: erlotinib 0.022 | [1] -0.014 | [3] 0.019 | [4] 0.049 | [5] 0.083 | [6] 0.228 | [7] -0.015 | [8] -0.01 | [9] -0.04

H4C1 (UniProt P62805)
inactive: erlotinib 0.093 | [1] -0.108 | [2] -0.384 | [3] -0.019 | [4] 0.02 | [5] 0.209 | [6] -0.056 | [7] -0.02 | [8] 0.334 | [9] -0.407

GTF2I (UniProt P78347)
inactive: erlotinib 0.038 | [1] 0.03 | [2] -0.107 | [3] -0.021 | [4] -0.045 | [5] 0.017 | [6] 0.009 | [7] -0.088 | [8] -0.09 | [9] 0.121

HACL1 (UniProt Q9UJ83)
inactive: erlotinib -0.015 | [1] -0.014 | [2] 0.105 | [3] -0.038 | [4] -0.006 | [5] 0.048 | [6] 0.006 | [7] 0.026 | [8] 0.002 | [9] 0.051

HEBP2 (UniProt Q9Y5Z4)
inactive: erlotinib 0.012 | [1] 0.004 | [2] 0.042 | [3] -0.014 | [4] -0.035 | [5] 0.026 | [6] -0.023 | [7] 0.003 | [8] 0.007 | [9] 0.011

HBZ (UniProt P02008)
inactive: erlotinib -0.013 | [1] 0.077 | [2] 0.252 | [3] 0.042 | [4] 0.143 | [5] 0.006 | [6] 0.118 | [7] 0.017 | [8] -0.034 | [9] 0.043

GTF3C4 (UniProt Q9UKN8)
inactive: erlotinib -0.016 | [1] 0.065 | [2] 0.026 | [3] 0.003 | [4] 0.025 | [5] -0.005 | [6] 0.003 | [7] -0.022 | [8] -0.026 | [9] 0.027
